This passage reports binding results from US20110294740A1.

The chains behind the UniProt entries cited, without tags or fusion partners. Residues count along the entry.
UniProt P05067, residues 672-713: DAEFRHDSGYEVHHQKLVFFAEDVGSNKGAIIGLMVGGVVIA

For assay [1], the target named is wild-type Aβ42 peptide (UniProt P05067). In words: co-immunoprecipitation with anti-MBP mAb 382, blot with biotinylated mAb 3D6 (Aβ) and mAb 384 (MBP).
The target is the same in assay [2]. In words: co-immunoprecipitation with an anti-MBP mAb.

Results are given in words; binding and its absence hold for the method and conditions named. In cells and extracts the contact can be indirect. Some results given as binding are weak or reduced against the parent protein; the word gives no strength.

In the case of “myelin basic protein (purified MBP) (from UniProt P02686 2-171)”, the binding entry with wild-type Aβ42 peptide [1] and with wild-type Aβ42 peptide [2] was “binds” each time.
